According to paper PMC6923955:
These are yes or no findings as the source states them, for the method shown. Binding seen in cells or lysates may run through a third protein. Some binding calls cover weakened binding; strength is not graded here.

Amino acid sequences for entries named in this document (tags omitted).
UniProt P04198: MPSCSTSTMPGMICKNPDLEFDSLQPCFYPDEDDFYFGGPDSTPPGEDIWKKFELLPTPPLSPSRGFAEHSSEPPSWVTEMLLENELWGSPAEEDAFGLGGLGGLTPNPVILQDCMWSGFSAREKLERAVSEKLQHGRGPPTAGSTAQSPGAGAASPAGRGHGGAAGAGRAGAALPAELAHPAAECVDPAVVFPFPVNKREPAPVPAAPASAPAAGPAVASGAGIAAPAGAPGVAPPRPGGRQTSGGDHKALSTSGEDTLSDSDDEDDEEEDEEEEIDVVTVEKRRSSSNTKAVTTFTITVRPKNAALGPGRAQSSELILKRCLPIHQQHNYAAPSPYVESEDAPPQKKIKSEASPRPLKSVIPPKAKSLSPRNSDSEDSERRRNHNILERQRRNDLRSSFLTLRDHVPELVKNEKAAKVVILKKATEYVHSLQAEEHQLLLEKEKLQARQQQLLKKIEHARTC
UniProt Q06587: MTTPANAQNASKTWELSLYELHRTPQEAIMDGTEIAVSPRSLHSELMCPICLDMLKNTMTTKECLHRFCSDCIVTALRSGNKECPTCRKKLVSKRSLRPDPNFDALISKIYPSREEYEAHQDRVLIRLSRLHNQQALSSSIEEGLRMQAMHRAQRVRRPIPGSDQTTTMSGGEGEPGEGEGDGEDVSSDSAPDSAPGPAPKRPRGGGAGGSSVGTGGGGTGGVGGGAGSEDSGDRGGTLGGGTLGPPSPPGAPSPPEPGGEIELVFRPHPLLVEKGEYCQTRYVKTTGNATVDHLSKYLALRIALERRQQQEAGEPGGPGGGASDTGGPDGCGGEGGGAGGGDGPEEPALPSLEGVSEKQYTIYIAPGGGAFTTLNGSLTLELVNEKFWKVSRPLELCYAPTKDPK
UniProt Q99496: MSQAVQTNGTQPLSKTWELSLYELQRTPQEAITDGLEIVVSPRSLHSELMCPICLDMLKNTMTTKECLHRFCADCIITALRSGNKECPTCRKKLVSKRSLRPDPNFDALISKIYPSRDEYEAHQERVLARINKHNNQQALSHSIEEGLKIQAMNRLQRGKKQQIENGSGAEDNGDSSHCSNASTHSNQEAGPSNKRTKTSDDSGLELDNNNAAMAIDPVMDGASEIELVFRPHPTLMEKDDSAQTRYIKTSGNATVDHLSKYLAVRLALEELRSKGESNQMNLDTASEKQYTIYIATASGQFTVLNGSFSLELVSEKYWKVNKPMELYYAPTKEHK
UniProt P35226: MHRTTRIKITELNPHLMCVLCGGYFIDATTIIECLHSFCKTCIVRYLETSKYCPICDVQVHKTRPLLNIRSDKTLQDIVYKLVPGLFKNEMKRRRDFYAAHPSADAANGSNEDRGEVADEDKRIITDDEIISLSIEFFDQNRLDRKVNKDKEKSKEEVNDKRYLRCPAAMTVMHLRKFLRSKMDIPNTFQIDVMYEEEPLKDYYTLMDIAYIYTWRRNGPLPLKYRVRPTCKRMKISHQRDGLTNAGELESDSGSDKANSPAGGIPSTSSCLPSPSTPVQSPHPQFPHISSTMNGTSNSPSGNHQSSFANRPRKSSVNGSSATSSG

Target: MYCN Proto-Oncogene, BHLH Transcription Factor (human (endogenous in BE(2)-C)) (UniProt P04198)
Assay: co-IP; BE(2)-C cell lysates immunoprecipitated with antibodies against MYCN, BMI1, RING1A or RING1B; Western blot; IgG control antibody and 1% of the lysate as input

binding	Substance
binds	RING1A (from UniProt Q06587 1-406)
binds	RING1B (from UniProt Q99496 1-336)
binds	BMI1 (from UniProt P35226 1-326)
